The target in this assay is Flag- and HA-tagged USP10 (ubiquitin-specific peptidase 10) (human) (UniProt Q14694). Put plainly: affinity purification with mass spectrometry; Flag- and HA-tagged USP10 enriched with anti-DYKDDDDK beads and anti-HA beads; SDS-PAGE, protein bands analysed by LC-MS/MS; compared to an IgG group.

By UniProt entry, the sequences of proteins in these tests, tags left out.
UniProt Q9NRL2: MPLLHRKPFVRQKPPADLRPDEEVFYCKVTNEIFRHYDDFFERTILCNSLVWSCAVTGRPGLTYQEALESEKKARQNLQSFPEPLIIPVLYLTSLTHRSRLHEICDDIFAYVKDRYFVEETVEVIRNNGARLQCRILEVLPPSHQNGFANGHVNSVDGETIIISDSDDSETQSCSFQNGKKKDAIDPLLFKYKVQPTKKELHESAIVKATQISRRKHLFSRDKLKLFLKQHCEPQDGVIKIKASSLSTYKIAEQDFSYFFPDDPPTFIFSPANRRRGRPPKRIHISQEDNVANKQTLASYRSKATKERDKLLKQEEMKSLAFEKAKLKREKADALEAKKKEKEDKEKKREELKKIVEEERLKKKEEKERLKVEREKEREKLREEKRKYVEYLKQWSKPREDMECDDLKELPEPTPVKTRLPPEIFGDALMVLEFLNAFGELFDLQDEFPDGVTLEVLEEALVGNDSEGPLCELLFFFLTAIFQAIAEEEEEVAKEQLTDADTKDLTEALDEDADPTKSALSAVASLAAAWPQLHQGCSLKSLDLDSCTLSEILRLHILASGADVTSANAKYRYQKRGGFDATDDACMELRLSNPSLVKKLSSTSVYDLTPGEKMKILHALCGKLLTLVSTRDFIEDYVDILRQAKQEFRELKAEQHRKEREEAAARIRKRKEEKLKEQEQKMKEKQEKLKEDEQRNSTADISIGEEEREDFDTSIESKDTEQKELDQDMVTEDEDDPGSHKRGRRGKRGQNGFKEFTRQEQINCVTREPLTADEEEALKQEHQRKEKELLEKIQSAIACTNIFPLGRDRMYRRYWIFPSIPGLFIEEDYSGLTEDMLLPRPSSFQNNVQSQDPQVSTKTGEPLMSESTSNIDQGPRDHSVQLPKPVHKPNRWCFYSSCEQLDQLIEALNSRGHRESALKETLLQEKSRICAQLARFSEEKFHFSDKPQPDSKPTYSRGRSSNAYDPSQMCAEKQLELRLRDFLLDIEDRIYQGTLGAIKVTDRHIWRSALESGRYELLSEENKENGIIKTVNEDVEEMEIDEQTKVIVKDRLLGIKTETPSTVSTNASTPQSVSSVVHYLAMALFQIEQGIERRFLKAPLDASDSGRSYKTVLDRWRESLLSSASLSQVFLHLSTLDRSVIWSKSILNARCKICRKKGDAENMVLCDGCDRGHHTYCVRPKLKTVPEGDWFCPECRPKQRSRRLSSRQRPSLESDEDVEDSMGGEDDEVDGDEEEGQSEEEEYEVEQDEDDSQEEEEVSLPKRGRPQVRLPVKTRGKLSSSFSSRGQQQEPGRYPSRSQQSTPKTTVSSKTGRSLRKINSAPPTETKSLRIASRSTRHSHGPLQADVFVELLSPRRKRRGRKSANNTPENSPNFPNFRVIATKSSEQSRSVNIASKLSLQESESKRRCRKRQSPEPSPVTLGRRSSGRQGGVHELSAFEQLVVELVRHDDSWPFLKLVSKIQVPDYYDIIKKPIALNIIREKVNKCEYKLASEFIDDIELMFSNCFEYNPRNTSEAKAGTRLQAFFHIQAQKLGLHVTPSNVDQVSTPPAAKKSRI
UniProt Q9UBN7: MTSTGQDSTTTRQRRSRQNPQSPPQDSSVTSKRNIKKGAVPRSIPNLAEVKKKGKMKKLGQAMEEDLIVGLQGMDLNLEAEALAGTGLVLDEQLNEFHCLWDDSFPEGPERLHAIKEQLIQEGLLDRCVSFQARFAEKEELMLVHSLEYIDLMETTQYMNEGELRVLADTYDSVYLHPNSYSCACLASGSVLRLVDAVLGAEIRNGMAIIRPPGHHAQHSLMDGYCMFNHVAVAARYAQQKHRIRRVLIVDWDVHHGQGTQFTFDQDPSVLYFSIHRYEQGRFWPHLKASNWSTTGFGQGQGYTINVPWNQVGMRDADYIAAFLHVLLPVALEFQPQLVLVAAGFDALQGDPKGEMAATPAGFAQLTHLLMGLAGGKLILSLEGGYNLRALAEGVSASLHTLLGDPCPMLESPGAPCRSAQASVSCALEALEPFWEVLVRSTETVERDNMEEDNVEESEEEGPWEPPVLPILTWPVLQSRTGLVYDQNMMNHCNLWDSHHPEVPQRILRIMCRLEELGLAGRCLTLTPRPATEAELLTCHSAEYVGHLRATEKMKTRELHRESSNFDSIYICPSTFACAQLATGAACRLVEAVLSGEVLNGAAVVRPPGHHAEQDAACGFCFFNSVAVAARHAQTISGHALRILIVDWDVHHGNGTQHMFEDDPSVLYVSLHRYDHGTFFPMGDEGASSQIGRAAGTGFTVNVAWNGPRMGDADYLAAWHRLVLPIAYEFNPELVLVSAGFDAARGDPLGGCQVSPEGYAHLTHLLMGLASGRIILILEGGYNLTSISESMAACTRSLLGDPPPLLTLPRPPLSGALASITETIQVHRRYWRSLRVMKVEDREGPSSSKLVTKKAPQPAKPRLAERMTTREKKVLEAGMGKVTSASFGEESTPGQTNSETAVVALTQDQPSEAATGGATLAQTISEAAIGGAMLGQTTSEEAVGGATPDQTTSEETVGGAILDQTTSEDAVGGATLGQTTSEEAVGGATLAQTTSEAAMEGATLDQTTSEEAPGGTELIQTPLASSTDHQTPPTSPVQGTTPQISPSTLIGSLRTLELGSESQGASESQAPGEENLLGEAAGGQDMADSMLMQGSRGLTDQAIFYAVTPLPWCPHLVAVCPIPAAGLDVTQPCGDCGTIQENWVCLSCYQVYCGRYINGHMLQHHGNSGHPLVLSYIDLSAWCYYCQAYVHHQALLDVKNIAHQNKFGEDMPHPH

No constants are given. Whether binding was seen depends on the method and setting. Binding seen in cells or lysates may run through a third protein. A yes stands for co-enrichment or nearness to the bait. Other partners may have been found.

For the molecule “BAZ1A (bromodomain adjacent to zinc finger domain, 1A), endogenous (from UniProt Q9NRL2 1-1556)”, the binding entry was “binds”.
The same measure for HDAC6 (from UniProt Q9UBN7 1-1215): “binds”.

B1: DDX1 (protein, UniProt Q92499 1-740)
chain: MAAFSEMGVMPEIAQAVEEMDWLLPTDIQAESIPLILGGGDVLMAAETGSGKTGAFSIPVIQIVYETLKDQQEGKKGKTTIKTGASVLNKWQMNPYDRGSAFAIGSDGLCCQSREVKEWHGCRATKGLMKGKHYYEVSCHDQGLCRVGWSTMQASLDLGTDKFGFGFGGTGKKSHNKQFDNYGEEFTMHDTIGCYLDIDKGHVKFSKNGKDLGLAFEIPPHMKNQALFPACVLKNAELKFNFGEEEFKFPPKDGFVALSKAPDGYIVKSQHSGNAQVTQTKFLPNAPKALIVEPSRELAEQTLNNIKQFKKYIDNPKLRELLIIGGVAARDQLSVLENGVDIVVGTPGRLDDLVSTGKLNLSQVRFLVLDEADGLLSQGYSDFINRMHNQIPQVTSDGKRLQVIVCSATLHSFDVKKLSEKIMHFPTWVDLKGEDSVPDTVHHVVVPVNPKTDRLWERLGKSHIRTDDVHAKDNTRPGANSPEMWSEAIKILKGEYAVRAIKEHKMDQAIIFCRTKIDCDNLEQYFIQQGGGPDKKGHQFSCVCLHGDRKPHERKQNLERFKKGDVRFLICTDVAARGIDIHGVPYVINVTLPDEKQNYVHRIGRVGRAERMGLAISLVATEKEKVWYHVCSSRGKGCYNTRLKEDGGCTIWYNEMQLLSEIEEHLNCTISQVEPDIKVPVDEFDGKVTYGQKRAAGGGSYKGHVDILAPTVQELAALEKEAQTSFLHLGYLPNQLFRTF
For the molecule B1, the binding entry is listed as “binds”.

(Values after publication PMC11982335.)
